Out of some 400,000 compounds screened, about 13,000 (3.2%) were called active. The inconclusive results got no clear call from the source; some entries with a clear call stand among them for comparison. Calls follow the shape of the dose curve; as a rule, active = well fitted cell-killing curve with a large enough effect; inconclusive = small, poorly fitted or top-dose-only effect, or effect the other way; inactive = flat fitted curve, though single readings scatter. Where the call is inconclusive, the potency comes from a doubtful curve fit.
assay: qHTS assay for MDR1-selective chemotherapeutics: Primary screen using the drug-selected MDR subline cells KB-V1; conditions: KB-V1 MDR cells viability, CellTiter-Glo, 72 h; activity change, negative = cytotoxicity: at 46.1 µM (top of the series); also: nearly all actives have a fitted effect of over 60% in size
How it was run: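 Compound-treated KB-V1 multidrug-resistant cells, 72 h, 37 degrees C; viability by CellTiter-Glo. Fitted qHTS curves give the values.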
% is scaled to controls: 0 for no effect and ±100 for the full control effect; potency is read from the fitted curve at half-maximal effect.

Row | SMILES | Potency | activity change, negative = cytotoxicity
1 | COc1ccccc1N1CCN(c2ccnc3cc(Cl)ccc23)CC1 | inconclusive: 16.4 µM [cytotoxic, partial curve, poor fit] | 
2 | CC1=C(C(=O)Nc2cccnc2)C(c2ccccc2)n2nc(SCc3ccccc3Cl)nc2N1 (configuration not stated) | inconclusive: 23.1 µM [rising, single point] | 
3 | CCN(CC(=O)Nc1ccccc1C(F)(F)F)CC(=O)c1[nH]c(C)c(C(C)=O)c1C | inconclusive: 25.9 µM [cytotoxic, single point] | 
4 | Cc1c(O)nc(SC2CC(=O)N(c3cc(Cl)cc(Cl)c3)C2=O)[nH]c1=O (configuration not stated) |  | inactive: 14.8%
5 | CC(C)(C)c1ccccc1OCC(=O)Nc1ccccc1C(=O)NCc1cccnc1 | active: 18.4 µM | 
6 | CCc1ccc(NC(=O)C/C(C)=N/NC(=O)OCc2ccc(OC)cc2)cc1 | inconclusive: 6.51 µM [rising, partial curve, poor fit] | 
7 | CCCCNC(=O)c1cc2cc(OC)ccc2[nH]1 | inconclusive: 29.1 µM [cytotoxic, single point] | 
8 | O=C(N/N=C/c1ccccn1)c1ccc(Br)cc1 | active: 18.4 µM | 
9 | Cc1cc(C)cc(OCC(=O)N/N=C\c2cn(C)nc2C)c1 | inconclusive: 16.4 µM [cytotoxic, partial curve, poor fit] | 
10 | CCOC(=O)[C@@H]1[C@H]2COc3ccc(Br)cc3[C@@H]2N2C(=O)N(c3ccc(Br)cc3)C(=O)[C@@]12C | inconclusive: 0.291 µM [rising, full curve, poor fit] | 
11 | CN(C)S(=O)(=O)c1ccc(Nc2nc(C3CC3)nc3c2nnn3Cc2ccccc2Cl)cc1 | inconclusive: 4.11 µM [cytotoxic, full curve] | 
12 | O=C(C1CCCN1S(=O)(=O)c1cccc2cccnc12)N1CCc2ccccc2C1 (configuration not stated) | inconclusive: 0.164 µM [cytotoxic, full curve] | 
13 | Cc1cccc(NC(=O)c2ccc(Cl)c(S(=O)(=O)N3CCCC3)c2)n1 | inconclusive: 11.6 µM [cytotoxic, partial curve] | 
14 | CN(C)S(=O)(=O)c1ccc(C(=O)Nc2cc(S(=O)(=O)Nc3ccccc3Cl)ccc2N2CCCCC2)cc1 | inconclusive: 2.91 µM [cytotoxic, full curve] | 
15 | Cc1ccc(S(=O)(=O)N2CCOCC2)cc1NC(=O)COC(=O)c1ccc(OCc2c(C)noc2C)cc1 | inconclusive: 29.1 µM [cytotoxic, single point] | 
16 | Cc1cccc(N2C(=O)CC(N3CCN(c4cccc(C(F)(F)F)c4)CC3)C2=O)c1 (configuration not stated) | inconclusive: 20.6 µM [cytotoxic, single point] | 
17 | CCCc1[nH]n(-c2ccc(F)cc2)c(=O)c1C=Nc1cccc(F)c1 | inconclusive: 13 µM [cytotoxic, partial curve, poor fit] | 

2 entries picked at random from those above:
Row | SMILES | Potency | activity change, negative = cytotoxicity
15 | Cc1ccc(S(=O)(=O)N2CCOCC2)cc1NC(=O)COC(=O)c1ccc(OCc2c(C)noc2C)cc1 | inconclusive: 29.1 µM [cytotoxic, single point] | 
2 | CC1=C(C(=O)Nc2cccnc2)C(c2ccccc2)n2nc(SCc3ccccc3Cl)nc2N1 (configuration not stated) | inconclusive: 23.1 µM [rising, single point] | 

Source: PubChem BioAssay AID1347076 (National Center for Advancing Translational Sciences (NCATS), 2019)
